# Some of the results follow. Single values are uncertain, as repeats are few or missing.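 The apoptosis fraction was the count of cleaved-PARP antibody-stained nuclei relative to all DNA-stained nuclei, imaged in 1,536-well plates. Screening doses were set so most cells survived, and baseline and induced cleaved-PARP levels vary greatly across cell lines.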
# Assays:
# Test in all cases: cleaved PARP positive nuclei fraction relative to DMSO control; melanoma cells; higher = more apoptosis
# Conditions in all cases: library dose: low library concentration; 72 h
# MZ2-MEL = system: MZ2-MEL
# MeWo = system: MeWo
# RPMI7951 = system: RPMI7951
# RVH-421 = system: RVH-421
# SkMel28 = system: SkMel28
# SkMel2 = system: SkMel2
# SkMel30 = system: SkMel30
# UACC62 = system: UACC62
# SkMel5 = system: SkMel5
# UACC257 = system: UACC257
Compound,cleaved PARP positive nuclei fraction (MZ2-MEL),cleaved PARP positive nuclei fraction (MeWo),cleaved PARP positive nuclei fraction (RPMI7951),cleaved PARP positive nuclei fraction (RVH-421),cleaved PARP positive nuclei fraction (SkMel28),cleaved PARP positive nuclei fraction (SkMel2),cleaved PARP positive nuclei fraction (SkMel30),cleaved PARP positive nuclei fraction (UACC62),cleaved PARP positive nuclei fraction (SkMel5),cleaved PARP positive nuclei fraction (UACC257)
"CC1(C)CCC(c2ccc(Cl)cc2)=C(CN2CCN(c3ccc(C(=O)NS(=O)(=O)c4ccc(N[C@H](CCN5CCOCC5)CSc5ccccc5)c(S(=O)(=O)C(F)(F)F)c4)cc3)CC2)C1 + C[As](C)SC[C@H](NC(=O)CC[C@H](N)C(=O)O)C(=O)NCC(=O)O [Darinaparsin] (first compound 0.4 µM, partner dose 0.4 µM)",122%,511%,74.3%,188%,41.9%,138%,52.4%,92.5%,,
"CN1CCN(c2ccc3nc(-c4c(N)c5c(F)cccc5[nH]c4=O)[nH]c3c2)CC1 [Dovitinib] + C[As](C)SC[C@H](NC(=O)CC[C@H](N)C(=O)O)C(=O)NCC(=O)O [Darinaparsin] (first compound 0.1 µM, partner dose 0.4 µM)",375%,134%,107%,105%,58.8%,94.1%,314%,132%,,
"Cn1cc(C2=C(c3cn(C4CCN(Cc5ccccn5)CC4)c4ccccc34)C(=O)NC2=O)c2ccccc21 [Enzastaurin] + Clc1ccc(Nc2nnc(Cc3ccncc3)c3ccccc23)cc1 [vatalanib] (first compound 0.8 µM, partner dose 2 µM)",135%,65.2%,49.3%,97.4%,38.3%,103%,124%,83.1%,,
"O=C(O)c1ccc2c(c1)nc(Nc1cccc(Cl)c1)c1ccncc12 + C[As](C)SC[C@H](NC(=O)CC[C@H](N)C(=O)O)C(=O)NCC(=O)O [Darinaparsin] (first compound 0.4 µM, partner dose 0.4 µM)",235%,177%,133%,123%,39.2%,125%,87.8%,131%,,
"NC(=O)c1ccc(N(C(N)=O)c2c(F)cccc2F)nc1-c1ccc(F)cc1F + N.N.[Cl][Pt][Cl] [cisplatin] (first compound 0.4 µM, partner dose 1.6 µM)",102%,66.7%,23.7%,67.9%,93.1%,86.7%,109%,122%,,
"N.N.[Cl][Pt][Cl] [cisplatin] + O=C(O)[C@@H]1[O][Sb](=[O])([O][Sb]2(=[O])[O][C@H]([C@H](O)CO)[C@H](O)[C@H](C(=O)O)[O]2)[O][C@H]([C@H](O)CO)[C@@H]1O [stibogluconate] (first compound 1.6 µM, partner dose 2 µM)",40.4%,135%,108%,64.4%,58.9%,122%,34.5%,150%,,
"COc1ccc2c(c1)CCC1C2CCC2(C)C(NCCCCCCN3C(=O)C=CC3=O)CCC12 (stereo not given) + O=C(Oc1ccc([N+](=O)[O-])cc1)N1CCC(C(O)(c2ccc3c(c2)OCO3)c2ccc3c(c2)OCO3)CC1 [JZL184] (first compound 0.4 µM, partner dose 1 µM)",70.1%,71.2%,233%,50.5%,143%,,99.2%,39.5%,65.1%,151%
"O=C(CCCCCCC(=O)Nc1ccccc1)NO [vorinostat] + C/C(O)=C(\C#N)C(=O)Nc1cc(Br)ccc1Br [LFM-A13] (first compound 0.08 µM, partner dose 2 µM)",98%,56.2%,40.7%,94%,201%,,17.5%,49.4%,89%,164%
"Cc1cc(N2CCOCC2)cc2[nH]c(-c3c(NC[C@@H](O)c4cccc(Cl)c4)cc[nH]c3=O)nc12 + O=C(Oc1ccc([N+](=O)[O-])cc1)N1CCC(C(O)(c2ccc3c(c2)OCO3)c2ccc3c(c2)OCO3)CC1 [JZL184] (first compound 0.2 µM, partner dose 1 µM)",234%,60%,80.8%,162%,111%,,18.3%,84.6%,228%,192%
"C[C@]12O[C@H](C[C@]1(O)CO)n1c3ccccc3c3c4c(c5c6ccccc6n2c5c31)CNC4=O [Lestaurtinib] + Cc1cc(SCc2sc(-c3ccc(C(F)(F)F)c(F)c3)nc2C)ccc1OCC(=O)O [GW0742] (first compound 0.004 µM, partner dose 2 µM)",110%,83.2%,110%,212%,132%,,130%,82.7%,61%,210%
"C[C@]12O[C@H](C[C@]1(O)CO)n1c3ccccc3c3c4c(c5c6ccccc6n2c5c31)CNC4=O [Lestaurtinib] + CC1(C)NC(=O)N(c2ccc([N+](=O)[O-])c(C(F)(F)F)c2)C1=O [nilutamide] (first compound 0.004 µM, partner dose 1 µM)",65.1%,88.7%,45.1%,180%,74.6%,,77.1%,68.4%,56.7%,149%
"C[As](C)SC[C@H](NC(=O)CC[C@H](N)C(=O)O)C(=O)NCC(=O)O [Darinaparsin] + O=C1NC(=O)/C(=C/c2ccc(-c3ccc(F)cc3O)o2)S1 [AS252424] (first compound 0.4 µM, partner dose 1 µM)",146%,45.9%,75%,106%,86%,,21.2%,88.6%,59.8%,77.7%
"Cn1cc(C2=C(c3cn(C4CCN(Cc5ccccn5)CC4)c4ccccc34)C(=O)NC2=O)c2ccccc21 [Enzastaurin] + Cn1nnc2c(C(N)=O)ncn2c1=O [temozolomide] (first compound 0.8 µM, partner dose 2 µM)",78.4%,51.7%,99.6%,89.3%,87.8%,155%,23.6%,223%,,
"O=c1[nH]nc(Sc2ncc([N+](=O)[O-])s2)n1-c1ccc2c(c1)OCCO2 + Cn1cc(C2=C(c3cn(C4CCN(Cc5ccccn5)CC4)c4ccccc34)C(=O)NC2=O)c2ccccc21 [Enzastaurin] (first compound 0.2 µM, partner dose 0.8 µM)",55.6%,105%,47.7%,78.2%,78.5%,123%,158%,57.9%,,
"C=C(c1ccc(C(=O)O)cc1)c1cc2c(cc1C)C(C)(C)CCC2(C)C [Bexarotene] + C[As](C)SC[C@H](NC(=O)CC[C@H](N)C(=O)O)C(=O)NCC(=O)O [Darinaparsin] (first compound 2 µM, partner dose 0.4 µM)",190%,139%,105%,182%,118%,98.5%,69.7%,20.2%,,
"COc1cc2c(Oc3ccc4[nH]c(C)cc4c3F)ncnc2cc1OCCCN1CCCC1 [cediranib] + O=C(Oc1ccc([N+](=O)[O-])cc1)N1CCC(C(O)(c2ccc3c(c2)OCO3)c2ccc3c(c2)OCO3)CC1 [JZL184] (first compound 0.4 µM, partner dose 1 µM)",118%,47%,79%,169%,74.7%,,20.1%,82.9%,27.8%,64.8%
"C[C@@H]1CCN(C(=O)CC#N)C[C@@H]1N(C)c1ncnc2[nH]ccc12 + Cc1cc(SCc2sc(-c3ccc(C(F)(F)F)c(F)c3)nc2C)ccc1OCC(=O)O [GW0742] (first compound 1 µM, partner dose 2 µM)",140%,107%,82.7%,56.2%,71.4%,,12.6%,54.4%,52.1%,82.9%
"O=c1[nH]nc(Sc2ncc([N+](=O)[O-])s2)n1-c1ccc2c(c1)OCCO2 + C[As](C)SC[C@H](NC(=O)CC[C@H](N)C(=O)O)C(=O)NCC(=O)O [Darinaparsin] (first compound 0.2 µM, partner dose 0.4 µM)",137%,61.5%,77.3%,109%,80.2%,63.9%,75.9%,124%,,
"N.N.[Cl][Pt][Cl] [cisplatin] + C=C(c1ccc(C(=O)O)cc1)c1cc2c(cc1C)C(C)(C)CCC2(C)C [Bexarotene] (first compound 1.6 µM, partner dose 2 µM)",22%,119%,38.4%,75.7%,41.6%,157%,61.6%,123%,,
"C[C@@H](N)c1ccc(C(=O)Nc2ccnc3[nH]ccc23)cc1 + Cn1cc(C2=C(c3cn(C4CCN(Cc5ccccn5)CC4)c4ccccc34)C(=O)NC2=O)c2ccccc21 [Enzastaurin] (first compound 0.4 µM, partner dose 0.8 µM)",225%,81.2%,110%,166%,45.9%,88.5%,18.1%,270%,,
"C[C@]12O[C@H](C[C@]1(O)CO)n1c3ccccc3c3c4c(c5c6ccccc6n2c5c31)CNC4=O [Lestaurtinib] + COC(=O)c1sccc1S(=O)(=O)Nc1ccc(Nc2ccccc2)cc1OC [GSK0660] (first compound 0.004 µM, partner dose 1 µM)",137%,64.5%,28.3%,73.4%,97.1%,,504%,51%,69.4%,83.2%
"CCN(CC)CCCCNc1ncc2cc(-c3cc(OC)cc(OC)c3)c(NC(=O)NC(C)(C)C)nc2n1 + Cc1cc(SCc2sc(-c3ccc(C(F)(F)F)c(F)c3)nc2C)ccc1OCC(=O)O [GW0742] (first compound 0.1 µM, partner dose 2 µM)",57.9%,26.2%,226%,62.3%,127%,,375%,89.2%,57.3%,113%
"C=CCn1c(=O)c2cnc(Nc3ccc(N4CCN(C)CC4)cc3)nc2n1-c1cccc(C(C)(C)O)n1 + O=C(Oc1ccc([N+](=O)[O-])cc1)N1CCC(C(O)(c2ccc3c(c2)OCO3)c2ccc3c(c2)OCO3)CC1 [JZL184] (first compound 0.02 µM, partner dose 1 µM)",179%,49.4%,216%,140%,113%,,339%,217%,121%,97.4%
"Cn1cc(C2=C(c3cn(C4CCN(Cc5ccccn5)CC4)c4ccccc34)C(=O)NC2=O)c2ccccc21 [Enzastaurin] + CNC(=O)c1cc(Oc2ccc(NC(=O)Nc3ccc(Cl)c(C(F)(F)F)c3)cc2)ccn1 [sorafenib] (first compound 0.8 µM, partner dose 0.4 µM)",90.5%,143%,182%,73.1%,88.8%,171%,34.1%,179%,,
"CC1(C)NC(=O)N(c2ccc([N+](=O)[O-])c(C(F)(F)F)c2)C1=O [nilutamide] + O=C(Oc1ccc([N+](=O)[O-])cc1)N1CCC(C(O)(c2ccc3c(c2)OCO3)c2ccc3c(c2)OCO3)CC1 [JZL184] (first compound 1 µM, partner dose 1 µM)",137%,47.8%,42.1%,56.3%,73.6%,,33.6%,40.9%,52.4%,101%
"Nc1cccc2c1CN(C1CCC(=O)NC1=O)C2=O (stereo not given) [lenalidomide] + Cc1cc(SCc2sc(-c3ccc(C(F)(F)F)c(F)c3)nc2C)ccc1OCC(=O)O [GW0742] (first compound 1 µM, partner dose 2 µM)",85.4%,157%,81%,121%,87.5%,,13.4%,135%,56.7%,106%
"NCC(=O)Nc1ccc(-n2nc(C(F)(F)F)cc2-c2ccc3c(ccc4ccccc43)c2)cc1 + O=C(Oc1ccc([N+](=O)[O-])cc1)N1CCC(C(O)(c2ccc3c(c2)OCO3)c2ccc3c(c2)OCO3)CC1 [JZL184] (first compound 1 µM, partner dose 1 µM)",130%,71.9%,33.4%,97.2%,89.6%,,104%,22.6%,56.7%,48.7%

# Two records picked at random from those above:
Compound,cleaved PARP positive nuclei fraction (MZ2-MEL),cleaved PARP positive nuclei fraction (MeWo),cleaved PARP positive nuclei fraction (RPMI7951),cleaved PARP positive nuclei fraction (RVH-421),cleaved PARP positive nuclei fraction (SkMel28),cleaved PARP positive nuclei fraction (SkMel2),cleaved PARP positive nuclei fraction (SkMel30),cleaved PARP positive nuclei fraction (UACC62),cleaved PARP positive nuclei fraction (SkMel5),cleaved PARP positive nuclei fraction (UACC257)
"C[C@]12O[C@H](C[C@]1(O)CO)n1c3ccccc3c3c4c(c5c6ccccc6n2c5c31)CNC4=O [Lestaurtinib] + COC(=O)c1sccc1S(=O)(=O)Nc1ccc(Nc2ccccc2)cc1OC [GSK0660] (first compound 0.004 µM, partner dose 1 µM)",137%,64.5%,28.3%,73.4%,97.1%,,504%,51%,69.4%,83.2%
"CC1(C)NC(=O)N(c2ccc([N+](=O)[O-])c(C(F)(F)F)c2)C1=O [nilutamide] + O=C(Oc1ccc([N+](=O)[O-])cc1)N1CCC(C(O)(c2ccc3c(c2)OCO3)c2ccc3c(c2)OCO3)CC1 [JZL184] (first compound 1 µM, partner dose 1 µM)",137%,47.8%,42.1%,56.3%,73.6%,,33.6%,40.9%,52.4%,101%

# From the supplement of paper PMC4604168 (melanoma cell lines)
